Primary screen of a compound library

Amino acid sequences for entries named in this document (tags omitted). Residues count along the entry.
UniProt A4I591, 1-473: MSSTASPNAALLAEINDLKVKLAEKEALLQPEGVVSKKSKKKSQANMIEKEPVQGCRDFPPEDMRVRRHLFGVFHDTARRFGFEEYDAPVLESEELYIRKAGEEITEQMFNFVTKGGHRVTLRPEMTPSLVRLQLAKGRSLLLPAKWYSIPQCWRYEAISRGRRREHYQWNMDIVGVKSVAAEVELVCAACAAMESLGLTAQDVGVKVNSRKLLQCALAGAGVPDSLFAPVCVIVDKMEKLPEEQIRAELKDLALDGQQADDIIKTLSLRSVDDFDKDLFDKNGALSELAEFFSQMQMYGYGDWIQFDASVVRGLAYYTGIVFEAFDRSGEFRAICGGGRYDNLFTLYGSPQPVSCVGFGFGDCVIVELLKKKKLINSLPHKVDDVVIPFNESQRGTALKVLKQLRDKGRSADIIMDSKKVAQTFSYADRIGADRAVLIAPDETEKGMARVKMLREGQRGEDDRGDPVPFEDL
UniProt I6X8D2, whole entry: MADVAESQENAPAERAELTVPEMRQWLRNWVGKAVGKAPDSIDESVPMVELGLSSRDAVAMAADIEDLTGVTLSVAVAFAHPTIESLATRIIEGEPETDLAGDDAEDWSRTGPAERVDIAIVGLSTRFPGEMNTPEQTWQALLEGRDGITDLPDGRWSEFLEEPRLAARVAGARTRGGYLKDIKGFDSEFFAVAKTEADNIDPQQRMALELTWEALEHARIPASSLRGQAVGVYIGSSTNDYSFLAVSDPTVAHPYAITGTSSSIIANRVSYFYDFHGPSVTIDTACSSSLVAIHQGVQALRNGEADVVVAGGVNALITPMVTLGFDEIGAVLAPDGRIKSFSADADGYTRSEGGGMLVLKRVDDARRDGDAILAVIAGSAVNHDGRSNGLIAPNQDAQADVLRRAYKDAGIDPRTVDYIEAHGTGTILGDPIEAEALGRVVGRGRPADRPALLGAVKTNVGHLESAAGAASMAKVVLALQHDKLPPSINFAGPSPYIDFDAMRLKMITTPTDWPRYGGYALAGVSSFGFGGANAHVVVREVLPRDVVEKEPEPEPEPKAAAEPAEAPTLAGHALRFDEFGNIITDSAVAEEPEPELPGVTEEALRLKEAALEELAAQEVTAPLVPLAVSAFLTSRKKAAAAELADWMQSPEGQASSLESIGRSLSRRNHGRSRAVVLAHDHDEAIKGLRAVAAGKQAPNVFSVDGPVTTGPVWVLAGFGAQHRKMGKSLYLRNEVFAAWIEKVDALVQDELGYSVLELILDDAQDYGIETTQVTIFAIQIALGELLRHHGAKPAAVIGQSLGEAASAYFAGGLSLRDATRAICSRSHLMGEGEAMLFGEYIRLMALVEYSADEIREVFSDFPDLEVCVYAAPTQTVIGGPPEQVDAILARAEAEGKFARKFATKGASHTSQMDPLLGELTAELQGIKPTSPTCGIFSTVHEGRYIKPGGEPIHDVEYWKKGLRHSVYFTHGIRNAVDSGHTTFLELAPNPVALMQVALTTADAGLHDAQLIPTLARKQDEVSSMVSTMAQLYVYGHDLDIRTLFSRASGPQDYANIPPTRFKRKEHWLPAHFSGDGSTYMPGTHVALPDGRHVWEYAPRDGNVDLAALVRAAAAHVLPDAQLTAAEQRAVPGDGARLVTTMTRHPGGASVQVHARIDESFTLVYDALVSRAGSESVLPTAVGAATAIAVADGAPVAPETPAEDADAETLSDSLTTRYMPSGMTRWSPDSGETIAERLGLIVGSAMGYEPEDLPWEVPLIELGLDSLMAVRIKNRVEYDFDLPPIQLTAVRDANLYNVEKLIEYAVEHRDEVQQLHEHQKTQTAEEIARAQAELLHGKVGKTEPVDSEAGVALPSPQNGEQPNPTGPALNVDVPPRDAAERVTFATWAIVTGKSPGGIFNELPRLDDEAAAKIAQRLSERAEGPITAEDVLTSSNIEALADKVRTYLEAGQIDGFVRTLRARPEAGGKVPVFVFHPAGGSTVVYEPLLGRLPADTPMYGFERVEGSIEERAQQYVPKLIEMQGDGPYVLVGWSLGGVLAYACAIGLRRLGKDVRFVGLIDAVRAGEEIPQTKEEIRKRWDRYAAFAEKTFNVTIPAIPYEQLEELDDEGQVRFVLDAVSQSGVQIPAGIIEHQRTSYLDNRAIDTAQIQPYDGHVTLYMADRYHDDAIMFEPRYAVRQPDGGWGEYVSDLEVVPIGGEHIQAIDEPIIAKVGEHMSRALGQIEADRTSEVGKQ

The values are deposited in ChEMBL (CHEMBL3988442, “University of Dundee, Small-Polar-MMV Screening Library” (2021)).

A: 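Cell assay of Leishmania donovani living inside macrophages; the read-out is not stated. Compounds at 30 µM. Higher reads as stronger inhibition (inferred: compounds with an IC50 in retests scored well above the rest). Of about 69,000 compounds tested this way, about 1,000 (1.5%) reached 50% or more in at least one test.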
B: 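Enzyme assay of histidyl-tRNA synthetase; the read-out is not stated. Target: Histidine-tRNA ligase, Leishmania infantum (UniProt A4I591). Compounds at 30 µM. The record gives no direction; compounds that gave an IC50 in retests scored well above the rest, so higher reads as stronger inhibition. The assay is labelled LdHisRS but filed under L. infantum. About 69,000 compounds were tested under these conditions; 0.6% (about 410) showed 50% or more at least once.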
C: 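Enzyme assay of the thioesterase domain of polyketide synthase 13; the read-out is not stated. Target: Polyketide synthase Pks13, Mycobacterium tuberculosis (UniProt I6X8D2). Compounds at 30 µM. The record gives no direction; the compounds picked for IC50 retests had high values, so higher reads as stronger inhibition. Of about 67,000 compounds tested this way, about 300 (0.46%) reached 50% or more in at least one test.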

Values are the deposited “Percent Effect”, in %.
How 0% and 100% were set is not recorded. Most values in the screen are low, and negative values occur.
Compounds were drawn at random from those tested, without regard to their results.
Two or more numbers in one place are separate tests of the same structure; such repeats can differ widely.
A dash means the value is not listed here; it may have been measured.

SMILES,A,B,C
CCc1ccc(CN(Cc2ccco2)C(C)C(C)C)nc1 (configuration not stated),7.801,24.39,-9.36
Cc1nc2cc(O)nn2c(C)c1CCC(=O)NCCc1nccn1C,3.437,13.91,1.876
COCCN(C)C1COC2(CCN(Cc3cccc(F)c3)CC2)C1 (configuration not stated),-,-1.818,-0.2668
CC(C)NC(=O)[C@@H]1CCO[C@@H]2CCN(c3ncccn3)C[C@@H]21,-,11.11,15.84
Cn1cc(C(=O)Nc2cc(F)ccc2OCC2CCCO2)ccc1=O (configuration not stated),20.14,11.54,-6.994
Cc1cnc(CN(C)C2CCN(CCc3cnn(C)c3)C2)o1 (configuration not stated),34.68,17.57,-8.123
Cc1c[nH]c(CN2CCCCC2CCN(C)C)c(C)c1=O (configuration not stated),7.84,13.49,-
CNc1ncc(C(=O)N2CCOC(C(=O)Nc3ccccc3)C2)cn1 (configuration not stated),-26.3,9.929,4.479
Cc1ccc(-c2nc(CNC3CCc4ncnn4C3)co2)c(C)c1 (configuration not stated),14.88,21.92,-2.273
CCC(C)(C)NC(=O)C1CC(=O)N(CC2CC2)C1 (configuration not stated),-35.79,0,-7.483
CCOCCOc1ccccc1C(=O)N1C[C@H](C2CC2)[C@@H](N)C1,-35.58,7.5,-8.345
Cc1nc(C(C)C)cc(N2CCC3(CCC(=O)N(CC4CC4)C3)CC2)n1,13.94,8.197,-12.56
Cc1nc(C)c(C(=O)N2CCc3c(C)cccc32)o1,-5.37,17.78,4.888
Cc1nc(Nc2nncs2)cc(C2CNC2)n1.O=C(O)C(F)(F)F,20.9,-,-
Cc1ncsc1CCN(C)Cc1ccc(Br)o1,-16.86,11.11,-
CC(C)N1CC[C@H]2[C@H](C[C@@H](Cn3cncn3)N2c2nccs2)C1,-,13.21,-10.99
[H][C@@]12CCN(C[C@@H]1CN(CC)CC)[C@@H](CNC(=O)Nc1ccsc1)C2,10.48,-,-
COc1ccc(CN2CCC=C(C(C)NC(C)=O)C2)cc1 (configuration not stated),37.61,17.6,-4.177
COc1ccc2c3c1CN(C(C)=O)CC3=CC(C)(C)CO2,7.984,4.082,14.68
Cc1cnccc1N1CCCN(Cc2ccc(-c3cc[nH]n3)o2)CC1,12.2,40,-48.86
CC(C)COc1ccccc1CN(C)C(=O)c1cc(=O)[nH]c(=O)[nH]1,8.332,8.197,-8.338
CC(C(=O)NCc1ccc(N2CCCCC2)nc1)n1cncn1 (configuration not stated),31.62,14.29,1.551
O=C(CCn1c(=O)oc2ccccc21)NCC(O)c1ccc(F)c(F)c1 (configuration not stated),41.71,20.88,-2.051
COCCN(C)C(C(=O)O)c1ccc(Cl)c(F)c1 (configuration not stated),-10.37,12.9,-8.696
COc1ccc2nc(CNC(=O)C3CC4(CCNCC4)CN3C)[nH]c2c1 (configuration not stated),-69.43,3.614,-5.949
Cc1cc2nc(C(C)C)cc(N(C)CC3CCN(C(C)C)C3)n2n1 (configuration not stated),-5.413,8.163,25.71
O=C1[C@H]2CN(Cc3nccs3)C[C@H]2CN1c1ccsc1,-,9.023,-6.887
Cn1cc(N2CCC3(CCCN(Cc4ccoc4)C3)C2=O)cn1 (configuration not stated),14.88,2.752,1.895
O=C(c1ccncn1)N1CCC[C@]2(C[C@H](Oc3ncccc3F)CO2)C1,-,11.29,11.12
O=C(Cc1ccccc1)C1CCCN(Cc2cncn2C2CCCC2)C1 (configuration not stated),-8.001,21.31,-44.27
CCc1nc(-c2noc3ccc(C(=O)N(C)CCOC)cc23)co1,23.95,11.11,-32.41
Cc1nc(CN2CCCC(c3cc(C(F)(F)F)[nH]n3)C2)cs1 (configuration not stated),33.37,3.448,-4.196
c1cncc(COCC2CN(Cc3ccco3)Cc3nccn3C2)c1 (configuration not stated),-8.415,22.37,-29.03
[H][C@@]12CN(C(=O)c3ccsc3)C[C@]1([H])C(=O)N(CC)C2,-3.698,-,-
CCN1CCN(c2ccc(CNC(=O)c3ccc(Cl)o3)cn2)CC1,20.01,25.68,-9.677
Cn1ccnc1CN1CCCCC1Cn1cccn1 (configuration not stated),-3.84,8.108,-12.82
CS(=O)(=O)Nc1ccn(Cc2ccc(Br)cc2)n1,-33.41,5.172,-5.683
CC(=O)NCc1nnn2c1CN(c1ncc(C)cn1)CCC2,22.68,25.74,-8.079
O=C(c1cnns1)N1CCN(c2ccc(F)cc2Cl)CC1,-1.471,13.13,-15.52
O=C1CC[C@@H](CN(Cc2ccncc2)Cc2nc(-c3cccs3)no2)N1,14.08,6.557,-15.26
Cc1ccc(C2CSCCN2C(=O)c2ccsc2)o1 (configuration not stated),-15.53,22.64,-12.24
Cc1nc(C)n(CC2CCCN2CC(=O)Nc2nncs2)n1 (configuration not stated),-43.22,8.264,49.62
COc1cccc(OCC2CCCN(C(=O)CCc3cc(O)no3)C2)c1 (configuration not stated),8.971,23.29,-14.84
COC(=O)c1ccc(N2CCN(CCC#N)C(C)C2)cc1 (configuration not stated),-15.57,13.64,-8.71
Cc1cc(C)n(CC2CN(CC(=O)NCc3cccs3)CCO2)n1 (configuration not stated),-37.72,5.505,-26.32
O=C(CC1CC1)N1CCC2(CC1)CN(Cc1cccnc1)C(=O)CO2,-,0.9174,-20.23
CN(C)CC(C)(C)Cn1cnc(-c2ccccc2)c1-c1ncc[nH]1,7.329,5.747,-8.08
Cn1cccc1-c1cc(C(=O)NCCCc2csc(N)n2)[nH]n1,54.27,41.1,3.301
OC1CCCOC12CCN(Cc1nnc(-c3cccnc3)o1)CC2 (configuration not stated),24.29,7.692,6.897
CC(=O)NC1CCN(c2cnc(C3CCNCC3)cn2)CC1,-,17.02,-8.349
N#Cc1cccc(CN2Cc3nccn3CC(CN3CCCC3)C2)c1.O=C(O)C(F)(F)F.O=C(O)C(F)(F)F (configuration not stated),32.7,-,-
CC[C@@H]1N(Cc2ccc(F)cc2)CCC[C@]12CCC(=O)N2C,-,21.1,8.537
CC(=O)N1CCCN(C(=O)NCc2cccnc2OC(C)C)CC1,24.41,16.36,-10.22
CS(=O)(=O)NCc1nnc2n1CCN(Cc1ccccn1)C2,2.312,2,-0.6484
COCCN(Cc1ccccc1)c1cc(C)ncn1,7.911,6.349,-
CN(Cc1cnccn1)C(=O)Nc1cc(F)cc(N2CCCC2)c1,7.102,23.94,-14.54
NC(=O)CCn1cc(CNCCCc2ccccc2O)c2ccccc21,30.89,0,-26.79
COc1ncccc1CNC1CCc2c(ccc(=O)n2CC2CC2)C1.O=C(O)C(F)(F)F.O=C(O)C(F)(F)F (configuration not stated),27.06,-,-
c1cc(-c2noc(-c3cc(C4CC4)on3)n2)cc(N2CCCCC2)n1,20.42,18.33,-22.57
CNC(=O)CS(=O)(=O)C1CCN(S(=O)(=O)c2ccccc2Cl)CC1,-12.13,-3.306,-0.8025
COCCNc1ccc(CNC(=O)Nc2cn[nH]c2)cc1,-3.194,7.865,-16.85
O=C(Cc1n[nH]c(-c2cncc(Br)c2)n1)NCc1ccccn1,11.12,4.918,-18.23
COCCN1Cc2ccccc2C2(CCN(C(=O)c3ccco3)CC2)C1,2.736,9.722,-17.7
COc1ccc(C(=O)CCC(=O)NCc2c(C)noc2C)cc1F,-11.51,16.3,-7.777
O=C1NCCCCC1NCc1csc(-c2ccsc2)n1 (configuration not stated),-6.994,7.5,-12.8
CCN(CCSc1ccccc1)C(=O)c1cn([C@H]2CC[C@@H](N)CC2)nn1,13.68,11.67,-25.53
CCc1nc(NS(=O)(=O)c2ccc(F)cc2Cl)no1,-24.88,4.959,13.26
c1c[nH]c(CN2CCC3(CC2)COCCN(CCN2CCCC2)C3)c1,-,17.09,-19.79
Cc1csc(N2CCCN(C(=O)Cc3ccc(C)s3)CC2)n1,11.45,30.7,6.154
Nc1cc(CCC2CN(Cc3ccc4cc[nH]c4c3)CCO2)ccn1 (configuration not stated),44.79 and 26.32,27.54,-30.95
COCCn1ccc2c(C(=O)NC(C)C)cccc21,0.4019,10,7.711
CCOCCn1c(=O)n(CCC(C)C)c2ncc(C(=O)O)cc21,-9.452,1.709,5.892

Some entries from above, unchanged:

Cn1ccnc1CN1CCCCC1Cn1cccn1 (configuration not stated) read A: -3.84%; B: 8.108%; C: -12.82%.
O=C(CCn1c(=O)oc2ccccc21)NCC(O)c1ccc(F)c(F)c1 (configuration not stated) read A: 41.71%; B: 20.88%; C: -2.051%.
CC(C)NC(=O)[C@@H]1CCO[C@@H]2CCN(c3ncccn3)C[C@@H]21 read B: 11.11%; C: 15.84%.
Cc1nc(C(C)C)cc(N2CCC3(CCC(=O)N(CC4CC4)C3)CC2)n1 read A: 13.94%; B: 8.197%; C: -12.56%.
Cc1nc(Nc2nncs2)cc(C2CNC2)n1.O=C(O)C(F)(F)F read A: 20.9%.
Cc1nc(CN2CCCC(c3cc(C(F)(F)F)[nH]n3)C2)cs1 (configuration not stated) read A: 33.37%; B: 3.448%; C: -4.196%.
COCCNc1ccc(CNC(=O)Nc2cn[nH]c2)cc1 read A: -3.194%; B: 7.865%; C: -16.85%.
CNc1ncc(C(=O)N2CCOC(C(=O)Nc3ccccc3)C2)cn1 (configuration not stated) read A: -26.3%; B: 9.929%; C: 4.479%.
O=C1NCCCCC1NCc1csc(-c2ccsc2)n1 (configuration not stated) read A: -6.994%; B: 7.5%; C: -12.8%.